Data published in article PMC9224307.

Chains of the proteins cited; added tags and fusions are not shown. Lines headed by an entry give the natural chain unless they say otherwise; changes in a name come on top.
UniProt Q99757: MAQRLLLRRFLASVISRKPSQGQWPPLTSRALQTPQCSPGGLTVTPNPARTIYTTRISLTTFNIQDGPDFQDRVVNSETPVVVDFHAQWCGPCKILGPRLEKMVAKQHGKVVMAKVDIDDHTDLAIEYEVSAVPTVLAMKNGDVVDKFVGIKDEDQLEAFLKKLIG
UniProt Q15286: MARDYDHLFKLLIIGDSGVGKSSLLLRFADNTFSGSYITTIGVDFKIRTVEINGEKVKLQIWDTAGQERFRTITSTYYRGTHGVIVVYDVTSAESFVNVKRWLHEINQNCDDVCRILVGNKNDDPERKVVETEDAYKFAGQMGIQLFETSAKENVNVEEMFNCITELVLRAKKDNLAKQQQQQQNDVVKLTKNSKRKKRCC

Molecular target: FLAG-tagged full-length (FL) TRX2 (mitochondrial thioredoxin 2) (human) (UniProt Q99757)
Test: affinity purification with mass spectrometry; HCT116 transfected with FLAG-TRX2 or pcDNA3.1+; lysate in nondenaturing RIPA buffer, anti-FLAG magnetic beads overnight at 4 °C, washed with PBST; silver-stained bands specific to FLAG-TRX2 excised, LC-MS/MS

Rab35 (endogenous) (from UniProt Q15286 1-201)
binding: binds

Results are given in words; binding and its absence hold for the method and conditions named. In cells and extracts the contact can be indirect. These calls come from enrichment with a bait or labelling near it, and not all partners need be listed.
